{"source": "patent US7632813B2", "about": "“Bone densifying agent characterized by use of cathepsin K inhibitor with PTH” (Ono Pharmaceutical Co., Ltd., priority 2004, dated 2009)", "origin": "cited, not measured here", "conditions": "N Engl J Med 349, 1207-1215 and 1216-1226 (2003); cited from earlier work"}
{"smiles": "NCCCC(O)(P(=O)(O)O)P(=O)(O)O", "note": "[ALN, Alendronate sodium hydrate]", "values": [{"measurement": "effect on increasing bone mineral density in combination with PTH, clinical", "result": "does not show an effect in combination with PTH"}]}
